# Measured values from paper doi:10.1101/2025.11.24.690153.
# Like-named read-outs stand apart in the source and are kept apart here. These are yes or no findings as the source states them, for the method shown.
# B1: Bacillus subtilis major pilin ComGC, N-terminal truncation starting from amino acid 28 (domain or fragment, UniProt P25955 28-98)
# chain: NVTKHNQTIQKKGCEGLQNMVKAQMTAFELDHEGQTPSLADLQSEGYVKKDAVCPNGKRIIITGGEVKVEH
# Experiments:
# [1] = target: Bacillus subtilis major pilin ComGC, N-terminal truncation starting from amino acid 28 (B. subtilis) (UniProt P25955); test: SEC
# [2] = target: Bacillus subtilis major pilin ComGC, N-terminal truncation starting from amino acid 28 (B. subtilis) (UniProt P25955); test: SEC; remark: listed apart in the source
binder,measurement,setting,value
B1,binding,[1],no binding
same,binding,[2],no binding
